Laboratory results taken from paper doi:10.1101/2023.10.24.563888.
No constants are given. Whether binding was seen depends on the method and setting. Binding seen in cells or lysates may run through a third protein. Some binding calls cover weakened binding; strength is not graded here. For some assays here: Where a sequence is shown, tags or fusion partners need not be part of it.

Chains of the proteins cited; added tags and fusions are not shown.
UniProt P02538: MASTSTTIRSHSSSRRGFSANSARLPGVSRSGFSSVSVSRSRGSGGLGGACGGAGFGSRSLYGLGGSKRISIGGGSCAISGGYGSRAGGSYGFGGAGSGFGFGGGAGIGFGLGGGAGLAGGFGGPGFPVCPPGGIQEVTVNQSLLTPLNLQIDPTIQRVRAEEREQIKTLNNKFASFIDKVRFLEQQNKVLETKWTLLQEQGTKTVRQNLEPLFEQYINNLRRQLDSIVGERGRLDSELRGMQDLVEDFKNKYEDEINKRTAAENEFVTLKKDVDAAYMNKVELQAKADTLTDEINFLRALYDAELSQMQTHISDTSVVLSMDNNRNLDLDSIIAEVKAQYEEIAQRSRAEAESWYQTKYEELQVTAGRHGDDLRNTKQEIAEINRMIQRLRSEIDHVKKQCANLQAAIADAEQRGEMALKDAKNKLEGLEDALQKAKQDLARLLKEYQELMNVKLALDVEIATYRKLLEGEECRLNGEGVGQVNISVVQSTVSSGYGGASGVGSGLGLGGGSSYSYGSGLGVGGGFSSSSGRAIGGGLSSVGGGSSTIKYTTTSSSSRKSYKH

How the values were obtained:
Assay in all cases: co-IP
[1] = molecular target: K6a-mCherry fusion protein (human) (UniProt P02538)
[2] = molecular target: keratin 6a (K6a), endogenous in hTCEpi cells (human (endogenous in hTCEpi)) (UniProt P02538)
Flag-tagged IKKε = molecular target: T1, Flag-tagged IKKε (UniProt Q14164)
T1 sequence: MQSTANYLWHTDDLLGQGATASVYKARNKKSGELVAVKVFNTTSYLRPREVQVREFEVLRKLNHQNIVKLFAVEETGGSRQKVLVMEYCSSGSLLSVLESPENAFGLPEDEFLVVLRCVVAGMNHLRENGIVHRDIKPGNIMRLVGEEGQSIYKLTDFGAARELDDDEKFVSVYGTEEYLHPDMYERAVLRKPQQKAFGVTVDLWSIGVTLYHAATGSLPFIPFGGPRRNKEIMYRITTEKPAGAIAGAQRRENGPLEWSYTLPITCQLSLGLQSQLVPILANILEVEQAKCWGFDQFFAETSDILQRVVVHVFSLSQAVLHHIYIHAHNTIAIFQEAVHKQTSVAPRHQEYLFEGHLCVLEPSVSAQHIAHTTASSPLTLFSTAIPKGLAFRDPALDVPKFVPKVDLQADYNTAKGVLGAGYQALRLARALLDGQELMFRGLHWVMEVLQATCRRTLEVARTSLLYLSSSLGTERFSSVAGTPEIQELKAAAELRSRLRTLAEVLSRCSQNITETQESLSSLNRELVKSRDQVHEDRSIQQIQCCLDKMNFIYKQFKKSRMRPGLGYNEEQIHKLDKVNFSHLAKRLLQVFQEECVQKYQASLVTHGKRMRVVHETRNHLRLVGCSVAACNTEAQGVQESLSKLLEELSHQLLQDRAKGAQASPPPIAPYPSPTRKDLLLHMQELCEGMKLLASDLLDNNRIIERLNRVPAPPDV

[3] = molecular target: K6a overexpressed in 293T cells (human) (UniProt P02538)
Flag-tagged ELKS = molecular target: T2, Flag-tagged ELKS (UniProt Q8IUD2)
T2 sequence: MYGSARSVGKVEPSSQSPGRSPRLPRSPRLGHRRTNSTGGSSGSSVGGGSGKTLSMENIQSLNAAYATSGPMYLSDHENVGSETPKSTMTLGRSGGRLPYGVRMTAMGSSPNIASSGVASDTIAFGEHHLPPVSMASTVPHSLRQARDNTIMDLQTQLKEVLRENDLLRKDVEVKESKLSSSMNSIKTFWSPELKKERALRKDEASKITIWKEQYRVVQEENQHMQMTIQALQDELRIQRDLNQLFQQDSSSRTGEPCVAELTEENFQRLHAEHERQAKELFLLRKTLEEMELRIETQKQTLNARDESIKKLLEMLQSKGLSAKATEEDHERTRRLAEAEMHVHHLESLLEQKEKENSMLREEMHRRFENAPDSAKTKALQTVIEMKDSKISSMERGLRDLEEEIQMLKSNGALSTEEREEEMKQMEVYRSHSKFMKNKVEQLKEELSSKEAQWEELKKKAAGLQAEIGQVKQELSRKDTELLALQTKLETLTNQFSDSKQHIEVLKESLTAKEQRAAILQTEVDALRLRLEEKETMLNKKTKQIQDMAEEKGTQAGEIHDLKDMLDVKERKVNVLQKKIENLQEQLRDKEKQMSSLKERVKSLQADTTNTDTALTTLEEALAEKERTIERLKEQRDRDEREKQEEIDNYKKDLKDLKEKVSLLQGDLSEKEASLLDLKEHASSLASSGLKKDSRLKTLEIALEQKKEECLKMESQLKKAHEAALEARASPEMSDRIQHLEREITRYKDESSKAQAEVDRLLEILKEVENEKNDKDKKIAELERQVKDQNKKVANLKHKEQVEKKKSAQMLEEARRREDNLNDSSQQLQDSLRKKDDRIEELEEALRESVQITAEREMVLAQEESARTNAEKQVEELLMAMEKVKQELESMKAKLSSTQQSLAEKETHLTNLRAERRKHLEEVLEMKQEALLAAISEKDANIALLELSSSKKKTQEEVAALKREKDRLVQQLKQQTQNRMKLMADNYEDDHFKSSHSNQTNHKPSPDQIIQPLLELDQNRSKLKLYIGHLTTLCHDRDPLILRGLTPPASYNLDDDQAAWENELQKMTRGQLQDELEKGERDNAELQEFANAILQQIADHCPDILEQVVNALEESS

B1: ELKS/Rab6-interacting/CAST family member 1 (ELKS), endogenous in hTCEpi cells (protein, UniProt Q8IUD2 1-1116)
chain: T2 sequence
binding [1]: binds | binding [2]: binds

B2: Flag-tagged ELKS (protein, UniProt Q8IUD2 1-1116)
chain: T2 sequence
binding (Flag-tagged IKKε): binds | binding [3]: binds

B3: Flag-tagged IKKε (enzyme, UniProt Q14164 1-716)
chain: T1 sequence
binding (Flag-tagged ELKS): binds
